Laboratory results reported in PMC9283627, “Auxotrophic and prototrophic conditional genetic networks reveal the rewiring of transcription factors in Escherichia coli”.
The exact form of at least one protein or probe is not confirmed. A weaker result is weaker than the reference pair of the same experiment. At least one verdict was read from the data and is not stated in words by the source. Tags and fusion partners may be left off the protein sequences shown.

Molecular target: T1, YneJ (UniProt P77309)
T1 sequence (looked up, limits assumed): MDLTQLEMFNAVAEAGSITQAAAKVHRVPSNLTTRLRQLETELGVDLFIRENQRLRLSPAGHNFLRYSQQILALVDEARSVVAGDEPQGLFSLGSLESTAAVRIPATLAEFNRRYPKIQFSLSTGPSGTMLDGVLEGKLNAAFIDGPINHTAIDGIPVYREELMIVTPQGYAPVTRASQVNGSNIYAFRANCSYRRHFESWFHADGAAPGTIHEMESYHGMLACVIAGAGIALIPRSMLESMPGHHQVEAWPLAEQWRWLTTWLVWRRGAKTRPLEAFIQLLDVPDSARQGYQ
Assay: fluorescence polarization
Conditions: PBS (pH 6.5), 0.5 mM EDTA, 7 mM MgCl2, 100 mM KCl, 5 mM phosphate, herring sperm DNA, 50 C, 10 nM labeled dsDNA, recombinant protein

Sequence	binding result (negative control, label: 6-FAM on S39 (printed at the 5' end))	binding result (no metabolite, no AcrR)
GGGAGTATTCGCGGTAGTTATGATTGGG (double strand) [leuO promoter 28 bp]	binds more weakly	–
GGGTTCTCGATTCGTGAAGGG (double strand) [sad-yneJ consensus motif 21 bp]	–	binds more weakly
